Experimental findings from patent publication US20080044360A1 are described below.

The chains behind the UniProt entries cited, without tags or fusion partners. Residues count along the entry.
UniProt P02461, residues 154-1221: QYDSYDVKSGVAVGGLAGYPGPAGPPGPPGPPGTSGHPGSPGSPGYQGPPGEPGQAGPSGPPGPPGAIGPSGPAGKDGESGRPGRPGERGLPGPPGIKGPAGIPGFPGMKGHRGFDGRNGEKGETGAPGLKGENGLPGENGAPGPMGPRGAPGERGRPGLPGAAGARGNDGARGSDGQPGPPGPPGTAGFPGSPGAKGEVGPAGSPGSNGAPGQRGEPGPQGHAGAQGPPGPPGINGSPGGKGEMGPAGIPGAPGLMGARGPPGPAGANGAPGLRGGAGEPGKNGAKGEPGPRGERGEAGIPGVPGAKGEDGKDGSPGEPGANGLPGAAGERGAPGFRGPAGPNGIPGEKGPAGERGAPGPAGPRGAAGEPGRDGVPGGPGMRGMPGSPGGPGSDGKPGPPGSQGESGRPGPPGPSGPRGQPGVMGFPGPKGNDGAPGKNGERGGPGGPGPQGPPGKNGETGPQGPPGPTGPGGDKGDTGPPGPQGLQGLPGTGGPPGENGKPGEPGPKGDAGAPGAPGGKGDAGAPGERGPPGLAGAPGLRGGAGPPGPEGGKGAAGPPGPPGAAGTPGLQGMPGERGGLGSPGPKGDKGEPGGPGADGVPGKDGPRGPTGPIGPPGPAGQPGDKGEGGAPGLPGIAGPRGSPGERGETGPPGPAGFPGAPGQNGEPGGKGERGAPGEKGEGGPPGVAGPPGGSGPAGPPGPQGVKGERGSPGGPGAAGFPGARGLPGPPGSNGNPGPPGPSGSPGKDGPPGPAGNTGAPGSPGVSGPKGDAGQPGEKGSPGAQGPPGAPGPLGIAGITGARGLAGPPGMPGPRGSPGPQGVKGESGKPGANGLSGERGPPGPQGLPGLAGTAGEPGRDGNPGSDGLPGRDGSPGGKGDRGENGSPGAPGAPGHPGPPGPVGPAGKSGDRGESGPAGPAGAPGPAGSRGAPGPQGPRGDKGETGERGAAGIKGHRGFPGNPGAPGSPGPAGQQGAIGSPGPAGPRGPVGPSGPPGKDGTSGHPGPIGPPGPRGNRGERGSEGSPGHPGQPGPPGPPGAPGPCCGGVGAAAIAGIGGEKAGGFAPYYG
UniProt P02458, residues 182-1241: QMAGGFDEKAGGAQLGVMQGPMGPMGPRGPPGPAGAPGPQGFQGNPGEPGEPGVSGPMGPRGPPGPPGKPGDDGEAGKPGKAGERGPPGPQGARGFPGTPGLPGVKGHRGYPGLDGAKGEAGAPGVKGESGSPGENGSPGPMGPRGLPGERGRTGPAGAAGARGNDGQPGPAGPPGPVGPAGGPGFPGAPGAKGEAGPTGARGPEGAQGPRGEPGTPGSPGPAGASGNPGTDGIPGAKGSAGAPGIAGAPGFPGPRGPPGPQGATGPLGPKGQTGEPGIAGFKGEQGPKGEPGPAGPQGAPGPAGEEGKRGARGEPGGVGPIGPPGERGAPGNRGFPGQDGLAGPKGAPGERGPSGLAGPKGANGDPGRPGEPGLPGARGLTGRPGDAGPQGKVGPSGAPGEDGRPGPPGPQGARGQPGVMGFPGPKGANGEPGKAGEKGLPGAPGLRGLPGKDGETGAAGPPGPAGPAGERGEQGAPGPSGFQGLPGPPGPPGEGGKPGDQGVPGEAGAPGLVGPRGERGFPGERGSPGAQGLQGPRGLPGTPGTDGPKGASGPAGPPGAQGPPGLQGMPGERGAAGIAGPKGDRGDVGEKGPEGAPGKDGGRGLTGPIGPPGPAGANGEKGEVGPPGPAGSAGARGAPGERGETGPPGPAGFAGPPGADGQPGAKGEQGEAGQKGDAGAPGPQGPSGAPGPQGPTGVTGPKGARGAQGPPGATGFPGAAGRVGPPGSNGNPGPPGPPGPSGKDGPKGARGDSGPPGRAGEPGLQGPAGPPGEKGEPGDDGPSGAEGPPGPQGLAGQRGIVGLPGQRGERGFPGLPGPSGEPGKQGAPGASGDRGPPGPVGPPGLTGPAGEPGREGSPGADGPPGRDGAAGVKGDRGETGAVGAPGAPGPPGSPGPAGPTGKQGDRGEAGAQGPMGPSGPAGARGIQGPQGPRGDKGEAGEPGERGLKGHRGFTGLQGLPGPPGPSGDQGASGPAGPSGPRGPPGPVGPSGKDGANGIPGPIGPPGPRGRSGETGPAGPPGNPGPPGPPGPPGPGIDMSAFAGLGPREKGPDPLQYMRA

These are yes or no findings as the source states them, for the method shown. Some entries that bind do so weakly or less than the wild type.

In assay [1] the target is Type III human collagen (human) (UniProt P02461). Description: competition in the dried collagen assay.
The target of assay [2] is Type II human collagen (human) (UniProt P02458). The assay can be described thus: competition in the dried collagen assay.

As to KKWHCYTYFPHHYCVYG (N-terminal Gd^D; K(Gd^D) 1, 2) [Compound ID 1014], the binding entry in assay [1] and in assay [2] was “binds” each time.
